Taken from: PubChem BioAssay AID1259308 (NCATS, 2017)
This is a random part of about 59,000 reagents tested. Over the whole deposit, about 1,510 (2.6%) were called active. 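Calls use total luciferase alone and ignore viability, so some active siRNAs may act by altering cell number.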 Unmarked entries are inactive. The numbers tell different reagents against one gene apart. Reagent sequences are not shown.

- Test: 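Knock-downs that increase output of a recombinant reporter protein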 (primary screen)
- Cell system: human HEK293 embryonic kidney cells stably expressing firefly luciferase (HEK-CMV-Luc2-Hygro)
- Knock-down reagent: single siRNA against human genes, 0.8 pmol siRNA per well
- Time to read-out: 72 h
- Measurement: 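Reporter luminescence and viable-cell signal on separate replicate plates, given as percent of non-targeting control and median/MAD z-scores, plus per-cell luciferase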
- Reading the numbers: total luciferase, z-score and total luciferase, % of control: higher = more reporter protein produced; luciferase per cell, z-score: higher = more reporter output per viable cell; viable cells, % of control: higher = more viable cells
- Rule for the call: 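An siRNA counts as active if its total luciferase robust z-score exceeds 3; genes with two or more such siRNAs out of three were retested with fresh siRNAs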
- Meaning of the calls: active = raised luciferase; inactive = no rise

gene	reagent no.	total luciferase, z-score	total luciferase, % of control	luciferase per cell, z-score	viable cells, % of control
ATOH8 (atonal bHLH transcription factor 8)	1	0.781	97.4	0.982	84.1
ATOH8 (atonal bHLH transcription factor 8)	2	0.907	99.9	1.06	84.6
ATOH8 (atonal bHLH transcription factor 8)	3	0.399	89.8	-0.631	119
ETS2-AS1 (ETS2 antisense RNA 1)	1	0.679	95.4	1.35	74.8
ETS2-AS1 (ETS2 antisense RNA 1)	2	-2.48	32.6	-2.2	65
ETS2-AS1 (ETS2 antisense RNA 1)	3	-1.05	61.1	-0.145	70.9
SRSF8 (serine and arginine rich splicing factor 8)	1	-1.05	61	-0.849	85.3
SRSF8 (serine and arginine rich splicing factor 8)	2	-0.109	79.7	-0.414	99.3
SRSF8 (serine and arginine rich splicing factor 8)	3	-0.0149	81.6	0.211	86.2
ALX3 (ALX homeobox 3)	1	-1.1	60	-1.5	99.5
ALX3 (ALX homeobox 3)	2	-0.101	79.9	-0.184	93.7
ALX3 (ALX homeobox 3)	3	2.53	132	2.32	80.2
CHRNE (cholinergic receptor nicotinic epsilon subunit)	1	-0.687	68.2	-0.855	95.5
CHRNE (cholinergic receptor nicotinic epsilon subunit)	2	-1.67	48.6	-0.0942	55.7
CHRNE (cholinergic receptor nicotinic epsilon subunit)	3	-0.22	77.5	0.513	75.7
METTL9 (methyltransferase 9, His-X-His N1(pi)-histidine)	1	-0.575	70.4	-1.1	105
METTL9 (methyltransferase 9, His-X-His N1(pi)-histidine)	2	1.3	108	0.652	101
METTL9 (methyltransferase 9, His-X-His N1(pi)-histidine)	3	-1.84	45.2	-1.98	85
RSPO3 (R-spondin 3)	1	0.454	90.9	0.448	90.3
RSPO3 (R-spondin 3)	2	0.827	98.3	0.338	101
RSPO3 (R-spondin 3)	3	-1.08	60.3	-1.21	92.7
H2AC17 (H2A clustered histone 17)	1	-2.24	37.3	-1.73	65.7
H2AC17 (H2A clustered histone 17)	2	4.64 (active)	174	3.81	71.3
H2AC17 (H2A clustered histone 17)	3	-1.04	61.1	-1.04	89.9
YLPM1 (YLP motif containing 1)	1	-0.618	69.6	-1.16	106
YLPM1 (YLP motif containing 1)	2	0.0565	83	-0.148	96.4
YLPM1 (YLP motif containing 1)	3	-0.391	74.1	-0.735	101
CHD2 (chromodomain helicase DNA binding protein 2)	1	-0.039	81.1	-0.486	103
CHD2 (chromodomain helicase DNA binding protein 2)	2	0.545	92.7	0.00888	103
CHD2 (chromodomain helicase DNA binding protein 2)	3	0.184	85.5	-0.231	102
NBAT1 (neuroblastoma associated transcript 1)	1	2.48	131	3.11	64.6
NBAT1 (neuroblastoma associated transcript 1)	2	1.08	103	1.99	68.3
NBAT1 (neuroblastoma associated transcript 1)	3	0.303	87.9	0.293	91
SEMA6C (semaphorin 6C)	1	-0.0856	80.2	0.486	78.8
SEMA6C (semaphorin 6C)	2	-0.196	78	-0.252	93.1
SEMA6C (semaphorin 6C)	3	-0.434	73.3	0.238	76.9
TNS2 (tensin 2)	1	-0.0814	80.3	1.07	67.7
TNS2 (tensin 2)	2	1.78	117	1.21	95.2
TNS2 (tensin 2)	3	0.567	93.2	-0.303	113

4 consecutive entries from above, quoted:
gene	reagent no.	total luciferase, z-score	total luciferase, % of control	luciferase per cell, z-score	viable cells, % of control
SEMA6C (semaphorin 6C)	1	-0.0856	80.2	0.486	78.8
SEMA6C (semaphorin 6C)	2	-0.196	78	-0.252	93.1
SEMA6C (semaphorin 6C)	3	-0.434	73.3	0.238	76.9
TNS2 (tensin 2)	1	-0.0814	80.3	1.07	67.7
